Results taken from the supplement of paper PMC12889115.
The other results are listed elsewhere or left out. These are raw signals, not scaled to a control.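 Primary screen: polymyxin B was added at a level permeabilizing Salmonella outer membranes while sparing inner membranes. DMSO wells, both with and without polymyxin B, established maximum growth. Plate-to-plate variation meant each plate was ranked on its own, and the lowest-OD600 compounds were selected as hits.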

System: Salmonella enterica serovar Typhimurium SL1344
Experiment: bacterial growth OD600 after 18 h with compound and polymyxin B; higher = more bacterial growth (less inhibition)
Settings: 50 µM, Mueller-Hinton broth

SMILES | bacterial growth OD600 (polymyxin B 0.75 µg/mL) | bacterial growth OD600 (polymyxin B 1 µg/mL)
C=CCO[C@H]1[C@H](NC(=O)COC)c2ccccc2C12CCN(C(=O)c1ccccc1SC)CC2 | 0.929 | –
Cc1ccc(CN2CCCC(CO)(Cc3ccccc3)C2)cc1C (stereo not drawn) | – | 0.883
CCOc1ccc2nc(N3CCCC(C(=O)N4CCC(OC)CC4)C3)nc(C)c2c1 (stereo not drawn) | 0.843 | –
CCN1CCCC1CNC(=O)CCC1CCN(Cc2cn(CC)c3ccccc23)CC1 (stereo not drawn) | 0.876 | –
COc1ccc(OCC(O)CN2CCC(O)CC2)c(CNC2Cc3ccccc3C2)c1 (stereo not drawn) | – | 1.04
CCOC(=O)C1(Cc2ccccc2Cl)CCN(Cc2cccc3c2OCO3)CC1 | – | 0.838
CCCCc1nc2cc(C(=O)NCc3nc(C)c[nH]3)ccc2o1 | 0.771 | –
CCC(COC)NC(=O)C1CCCN(c2nc(C)c3ccc(S(C)(=O)=O)cc3n2)C1 (stereo not drawn) | 0.779 | –
CCOC(=O)C1(CCc2ccccc2)CCN(Cc2ccc(O)cc2)CC1 | – | 0.869
Cc1ncc2c(c1CNC(=O)CSc1ncccn1)CCN(C(=O)c1cc3ccccc3o1)C2 | 0.879 | –
COC(=O)c1c(S(=O)(=O)NCCc2ccccc2)sc2c1CCN(C(=O)c1ccccc1C)C2 | 0.957 | –
CC(Cn1ccc2ccccc21)NC1CCN(c2ccc(C(=O)N(C)C)cc2)CC1 (stereo not drawn) | 0.851 | –
CCC(=O)N[C@@H]1c2ccccc2C2(CCN(Cc3ccc(C)s3)CC2)[C@H]1OCCOC | 0.964 | –
COc1ccccc1CCNC1CCN(c2ccc(C(=O)NCc3ccc4c(c3)OCO4)cc2)CC1 | 0.922 | –
COc1ccc(CN2CCC(O)(Cc3cc(-c4ccccc4)no3)CC2)c(F)c1 | – | 0.84
CC(C)Oc1ccc(CN2CCCC(CO)(Cc3ccccc3)C2)cc1 (stereo not drawn) | – | 0.897
CCOc1cc(CN2CCC(C3(CC)NC(=O)N(CCc4scnc4C)C3=O)CC2)ccc1O (stereo not drawn) | 0.945 | –
COc1ccc(S(=O)(=O)NCC2CCCN(C/C(C)=C/c3ccccc3)C2)cc1 (stereo not drawn) | – | 0.875

Four of the compounds above, in markdown:

| SMILES | bacterial growth OD600 (polymyxin B 0.75 µg/mL) | bacterial growth OD600 (polymyxin B 1 µg/mL) |
| --- | --- | --- |
| CCOC(=O)C1(CCc2ccccc2)CCN(Cc2ccc(O)cc2)CC1 | – | 0.869 |
| COC(=O)c1c(S(=O)(=O)NCCc2ccccc2)sc2c1CCN(C(=O)c1ccccc1C)C2 | 0.957 | – |
| CC(Cn1ccc2ccccc21)NC1CCN(c2ccc(C(=O)N(C)C)cc2)CC1 (stereo not drawn) | 0.851 | – |
| CCOc1cc(CN2CCC(C3(CC)NC(=O)N(CCc4scnc4C)C3=O)CC2)ccc1O (stereo not drawn) | 0.945 | – |
